This is one part of the list.

In the assay the target is T1, OsSMF1 (Oryza sativa, UniProt Q6ZLB0 1-436).
T1 sequence: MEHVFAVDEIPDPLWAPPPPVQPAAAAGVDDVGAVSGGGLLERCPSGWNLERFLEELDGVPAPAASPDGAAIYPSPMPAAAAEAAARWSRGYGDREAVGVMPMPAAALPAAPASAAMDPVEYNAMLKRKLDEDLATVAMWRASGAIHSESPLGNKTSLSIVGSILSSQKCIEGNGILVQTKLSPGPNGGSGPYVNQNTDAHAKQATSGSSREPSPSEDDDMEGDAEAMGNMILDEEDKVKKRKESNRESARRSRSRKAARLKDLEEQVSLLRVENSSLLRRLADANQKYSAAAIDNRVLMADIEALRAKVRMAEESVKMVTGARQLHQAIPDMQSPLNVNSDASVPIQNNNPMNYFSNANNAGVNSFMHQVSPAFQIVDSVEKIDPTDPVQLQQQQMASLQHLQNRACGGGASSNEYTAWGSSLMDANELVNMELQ
As to the kind of experiment: protein-binding microarray (RPBM); PBS, 2% BSA, 51.3 ng/ul salmon testes DNA, 50 uM zinc acetate, 200 nM TF, 25 C, 1 h; high values mean tight binding. The conditions noted are these: protein: recombinant; tags: N-terminal polyhistidine and DsRed monomer fusion (pET32a); chain copies: 2; label: CyDye5-dUTP incorporated in the synthesized complementary strand; 3' TTTTT single-stranded linker to array surface; dsDNA, one strand shown. Summed up: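 Transcription factors were made in E. coli BL21-CodonPlus as N-terminal fusions to a polyhistidine tag and DsRed, then purified on Ni–NTA. After primer extension with Cy5-dUTP and blocking with 2% BSA, a custom Agilent array was exposed for 1 h at 25 °C to 200 nM protein in PBS, 2% BSA, salmon testes DNA and 50 µM zinc acetate. Washed arrays were scanned on an Axon 4000B, and the binding signal is per-feature fluorescence intensity in arbitrary units.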
As for “GAGCCCTTAATCCACTGTTCTAGTGACATAATCCACTGTTCGGAGTCACCTAGTGCAG”, the binding signal is 3320 fluorescence intensity (a.u.).
For the sequence “CGTTTGGCATCTCCAAAACCGTGACGCTCTCTCCACACGCCGGAGTCACCTAGTGCAG”, the binding signal was 3480 fluorescence intensity (a.u.).
To “GCAGAGGTGCTGGTGATGATGTCAGTGACAATAATCCATCCGGAGTCACCTAGTGCAG” belongs 6070 fluorescence intensity (a.u.).
With “AATCTAATAATCCCAAGATTCATAAAAGTAGATTTGACGTCGGAGTCACCTAGTGCAG” the figure was 3540 fluorescence intensity (a.u.); with “TGAAGGTTTCTCCGAGGAGTAGGCTTTGTCCGTGCCGTCGCGGAGTCACCTAGTGCAG”, 19600 fluorescence intensity (a.u.).
Turning to “TGCCCGGCCACCGTCTCCTGCGCCGACGTCCTCGCCCTCACGGAGTCACCTAGTGCAG”, the binding signal is 3760 fluorescence intensity (a.u.).
With “TATTAGTAGATACCTTCTTCCGGAGATGGCGGACGTGGCTCGGAGTCACCTAGTGCAG” the figure was 7320 fluorescence intensity (a.u.); with “CGCTGCCCCAATGCCACTGGACGGTGTCACTCCTGTTGCTCGGAGTCACCTAGTGCAG”, 3970 fluorescence intensity (a.u.); with “TTCAGCTCGGCCGCCCTCCCCTTGTCCTTGCGGCACAGCGCGGAGTCACCTAGTGCAG”, 3250 fluorescence intensity (a.u.).
With “TCCGACGGCCGCCTCATCATCGACTTCATCGGTACGCCTCCGGAGTCACCTAGTGCAG” the figure was 3770 fluorescence intensity (a.u.); with “TGCTGAATCGAATGCTTCGATCATCTGAGTAGGCACCCATCGGAGTCACCTAGTGCAG”, 4230 fluorescence intensity (a.u.).
With “GCCAATCCAACGACACTCCCGTCACCGCCGACAGCGGCATCGGAGTCACCTAGTGCAG” the figure was 5150 fluorescence intensity (a.u.); with “AGGAGGTGCTTATAGAGGTATGATGTGCGGTGTTTATGTTCGGAGTCACCTAGTGCAG”, 3670 fluorescence intensity (a.u.); with “GAACGGAACGCAACGTGCGGAGAGAGAGCGAGAGAGAAGCCGGAGTCACCTAGTGCAG”, 30600 fluorescence intensity (a.u.).
As for “TACAACACAGGACAGATGAGAGATGACACGTGTAAAATCTCGGAGTCACCTAGTGCAG”, the binding signal is 13200 fluorescence intensity (a.u.).
With “TTCTTCTTTCATAAAACCACATCATCTTACTTTTACATTTCGGAGTCACCTAGTGCAG” the figure was 4700 fluorescence intensity (a.u.); with “ACGCCCGGCCGGGCGTGGTCCACTCTTGCGTCGTCACGGCCGGAGTCACCTAGTGCAG”, 4420 fluorescence intensity (a.u.).
In the case of “TTCTTACTGTGGTATTTATTGGTAGTAGAATCAATTTAGACGGAGTCACCTAGTGCAG”, the binding signal was 3270 fluorescence intensity (a.u.).
With “TCACCCACAACTACCACGTCGCCACCCACAAGCGCGACGTCGGAGTCACCTAGTGCAG” the figure was 4120 fluorescence intensity (a.u.); with “TCCGCGGCACGTGTCTAGTGCCTACGGGGCGTCATCCGGTCGGAGTCACCTAGTGCAG”, 5220 fluorescence intensity (a.u.).
To “GAGAGAGATGATGATGACGTGGTCACCCTGACGTGTGGGGCGGAGTCACCTAGTGCAG” belongs 13000 fluorescence intensity (a.u.).
With “CCCGATTGAGATAGGTCATCTGTGACGGGCTATAGTTTGACGGAGTCACCTAGTGCAG” the figure was 10400 fluorescence intensity (a.u.); with “CCCGGGGTGAGATGGGCCTTGGCCCATGATGGTGAGTGGGCGGAGTCACCTAGTGCAG”, 3820 fluorescence intensity (a.u.).
“ACGTTCGAGGAAGCTGCACCATATGAATCAACGCGTTATTCGGAGTCACCTAGTGCAG”: the binding signal was 3260 fluorescence intensity (a.u.).
Take “CCTCGCCGACGCTGTATGACGTCGAGTAGCGTGGTGCCTCCGGAGTCACCTAGTGCAG”: the binding signal is 4430 fluorescence intensity (a.u.).
Take “TACCCAATGCGACGTGCCAAAACTTTAGACACCTGGATCTCGGAGTCACCTAGTGCAG”: the binding signal was 3150 fluorescence intensity (a.u.).
To “AGCGAGCACGCAGCAATGGTGGCGTCACCGTGACCTTCCGCGGAGTCACCTAGTGCAG” belongs 12300 fluorescence intensity (a.u.); to “GGCTCGATTCCGTCGCCACCCTGTGACAGCAGCAGCCACCCGGAGTCACCTAGTGCAG”, 3450 fluorescence intensity (a.u.).
Turning to “GAGACCTCTCGCCGTCCCGCCACGCGCGCGCGCGAGCGAGCGGAGTCACCTAGTGCAG”, the binding signal is 5040 fluorescence intensity (a.u.).
Take “ATCCTACTAAACTTATATTAGTCACCATCAAAATAGCTTCCGGAGTCACCTAGTGCAG”: the binding signal was 3880 fluorescence intensity (a.u.).
With “TGAGGATGCACGCGGCTGAAGATGAGCACAGCGGAGACTTCGGAGTCACCTAGTGCAG” the figure was 29500 fluorescence intensity (a.u.).
With “CCTCTCTTTCCAATCATGGGACATGTCACAGAGAATCAATCGGAGTCACCTAGTGCAG” the figure was 3160 fluorescence intensity (a.u.); with “GCAGGGACAGAGTAGATTTTCGATTGACATGTCACCTGTTCGGAGTCACCTAGTGCAG”, 4610 fluorescence intensity (a.u.); with “GTGGCGCCTCCACCTCAAGATGACGTCAAATAAAATGTATCGGAGTCACCTAGTGCAG”, 9220 fluorescence intensity (a.u.).
Consider “CGACGCGCCCGCATTCCCCACGCTGCTCCCTATTCCCCATCGGAGTCACCTAGTGCAG”, for which the binding signal was 4070 fluorescence intensity (a.u.).
For the sequence “TTCCTTGCATAGGCGGCGGCTCGCCACGCTATCCCCTCGCCGGAGTCACCTAGTGCAG”, the binding signal is 6510 fluorescence intensity (a.u.).
To “CTGCCACGCCGCCGTAACCACCACTCAACTGCCACATACCCGGAGTCACCTAGTGCAG” belongs 3650 fluorescence intensity (a.u.); to “GCCCCTTATTTGTTCATGCGTTGCTCCACATCCTCCATAACGGAGTCACCTAGTGCAG”, 4250 fluorescence intensity (a.u.); to “GGAGTATATTATTCTCTATGACTTTGATCATAAAATGAGTCGGAGTCACCTAGTGCAG”, 3480 fluorescence intensity (a.u.).
With “TGTCCCCGTCCCGTGTGCGACCAATTCGCCGTTCGTTGGGCGGAGTCACCTAGTGCAG” the figure was 3540 fluorescence intensity (a.u.); with “TCTTAAGCGACGGGCGCCTTCGTGACTCCTCATTTGCATCCGGAGTCACCTAGTGCAG”, 4810 fluorescence intensity (a.u.).
To “TGTTGGGCCCACATCATTTTCTCTCACTGACATGTGGGCCCGGAGTCACCTAGTGCAG” belongs 3730 fluorescence intensity (a.u.).

(Values after article PMC7819943, “Rice protein-binding microarrays: a tool to detect cis-acting elements near promoter regions in rice”.)
